In US10208088B1, “Low molecular polypeptide ZY4 and applications thereof” (Sichuan Synlight Biotech Ltd., priority 2015, dated 2019):

Tests used:
[1] = system: P. acnes ATCC11817; conditions: 2 mg/ml ointment on left ear skin, once every 8 h, 3 times, mice sacrificed 24 h later; PEG control 9.44×10^5
[2] = system: P. acnes ATCC6919; conditions: 2 mg/ml ointment on left ear skin, treated for 1 day; 0.20 mm before treatment, PEG control 0.43 mm

For `CCC[C@@H]1C[C@@H](C(=O)N[C@@H]([C@H]2O[C@H](SC)[C@H](O)[C@@H](O)[C@H]2O)[C@H](C)Cl)N(C)C1` [clindamycin, reference compound], the “CFU of P. acnes after treatment” value [1] was 5.6×10^5 CFU and the “thickness of mice ear” value [2] was 0.34 mm.
